The supplement of paper PMC10849652
Some of the results follow.

Amino acid sequences for entries named in this document (tags omitted). A change or cut given only in a name is not applied to a line headed by its entry.
UniProt Q6P9B9, whole entry, looked up: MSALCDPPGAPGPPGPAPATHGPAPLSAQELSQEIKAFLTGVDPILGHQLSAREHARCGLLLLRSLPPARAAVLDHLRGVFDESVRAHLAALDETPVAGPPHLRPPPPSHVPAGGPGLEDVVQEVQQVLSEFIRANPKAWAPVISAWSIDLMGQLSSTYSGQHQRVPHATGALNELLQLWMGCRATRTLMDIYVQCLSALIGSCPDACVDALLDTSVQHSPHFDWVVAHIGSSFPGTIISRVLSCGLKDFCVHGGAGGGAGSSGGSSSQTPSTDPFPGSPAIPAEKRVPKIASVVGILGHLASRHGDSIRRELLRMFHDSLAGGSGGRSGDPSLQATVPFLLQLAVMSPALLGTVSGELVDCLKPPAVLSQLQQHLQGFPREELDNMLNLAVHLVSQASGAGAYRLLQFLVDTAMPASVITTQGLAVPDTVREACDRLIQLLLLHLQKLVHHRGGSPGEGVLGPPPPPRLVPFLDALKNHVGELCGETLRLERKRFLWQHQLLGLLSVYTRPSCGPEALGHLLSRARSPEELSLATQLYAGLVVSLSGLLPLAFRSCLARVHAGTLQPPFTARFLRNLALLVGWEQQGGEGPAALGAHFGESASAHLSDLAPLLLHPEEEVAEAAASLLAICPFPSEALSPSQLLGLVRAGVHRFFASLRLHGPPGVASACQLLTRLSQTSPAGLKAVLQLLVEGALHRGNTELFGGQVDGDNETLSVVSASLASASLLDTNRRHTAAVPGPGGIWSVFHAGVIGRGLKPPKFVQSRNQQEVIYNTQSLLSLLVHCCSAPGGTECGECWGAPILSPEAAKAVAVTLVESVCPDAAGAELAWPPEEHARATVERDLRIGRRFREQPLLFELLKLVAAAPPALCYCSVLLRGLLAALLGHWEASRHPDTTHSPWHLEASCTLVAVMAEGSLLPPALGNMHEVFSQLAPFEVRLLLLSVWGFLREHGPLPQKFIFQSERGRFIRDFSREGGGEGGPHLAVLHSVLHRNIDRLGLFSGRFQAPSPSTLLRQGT
UniProt O94829: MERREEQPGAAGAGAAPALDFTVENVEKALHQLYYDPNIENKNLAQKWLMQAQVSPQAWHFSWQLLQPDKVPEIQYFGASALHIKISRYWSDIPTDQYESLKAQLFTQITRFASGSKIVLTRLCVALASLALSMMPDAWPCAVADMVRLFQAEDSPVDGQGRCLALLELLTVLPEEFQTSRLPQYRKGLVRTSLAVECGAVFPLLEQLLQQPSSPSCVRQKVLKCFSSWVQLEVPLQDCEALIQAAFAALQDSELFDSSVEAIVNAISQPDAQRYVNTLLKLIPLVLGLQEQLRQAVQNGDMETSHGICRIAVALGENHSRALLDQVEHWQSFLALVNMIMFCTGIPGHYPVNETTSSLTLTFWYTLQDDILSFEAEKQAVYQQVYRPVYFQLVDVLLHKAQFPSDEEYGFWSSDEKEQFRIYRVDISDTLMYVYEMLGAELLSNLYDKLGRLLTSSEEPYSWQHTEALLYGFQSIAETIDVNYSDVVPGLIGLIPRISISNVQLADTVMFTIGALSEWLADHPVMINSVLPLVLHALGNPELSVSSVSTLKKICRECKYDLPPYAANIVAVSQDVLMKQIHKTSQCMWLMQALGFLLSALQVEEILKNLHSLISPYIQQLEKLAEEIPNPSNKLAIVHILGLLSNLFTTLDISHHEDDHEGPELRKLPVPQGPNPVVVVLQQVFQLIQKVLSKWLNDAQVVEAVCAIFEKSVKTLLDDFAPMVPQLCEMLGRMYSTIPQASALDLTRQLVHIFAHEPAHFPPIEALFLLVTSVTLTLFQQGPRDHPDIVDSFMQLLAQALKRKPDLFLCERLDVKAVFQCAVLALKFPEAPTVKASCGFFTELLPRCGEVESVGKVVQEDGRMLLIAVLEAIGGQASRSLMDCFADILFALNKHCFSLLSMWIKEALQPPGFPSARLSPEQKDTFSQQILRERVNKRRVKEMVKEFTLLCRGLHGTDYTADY
UniProt P05161, whole entry, looked up: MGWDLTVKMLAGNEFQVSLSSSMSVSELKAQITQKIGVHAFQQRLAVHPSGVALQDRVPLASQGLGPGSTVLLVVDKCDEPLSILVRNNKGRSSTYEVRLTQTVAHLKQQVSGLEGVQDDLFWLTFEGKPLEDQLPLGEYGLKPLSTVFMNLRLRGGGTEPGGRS
UniProt Q13303: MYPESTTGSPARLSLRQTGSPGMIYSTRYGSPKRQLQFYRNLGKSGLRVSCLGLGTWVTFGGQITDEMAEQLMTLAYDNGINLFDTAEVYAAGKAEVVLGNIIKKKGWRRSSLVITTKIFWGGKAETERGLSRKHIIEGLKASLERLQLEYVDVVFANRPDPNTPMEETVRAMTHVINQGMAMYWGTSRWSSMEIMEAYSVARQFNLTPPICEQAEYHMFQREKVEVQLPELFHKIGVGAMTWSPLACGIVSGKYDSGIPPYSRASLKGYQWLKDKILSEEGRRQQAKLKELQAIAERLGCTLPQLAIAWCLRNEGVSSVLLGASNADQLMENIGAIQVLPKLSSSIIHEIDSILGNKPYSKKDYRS
UniProt O75449: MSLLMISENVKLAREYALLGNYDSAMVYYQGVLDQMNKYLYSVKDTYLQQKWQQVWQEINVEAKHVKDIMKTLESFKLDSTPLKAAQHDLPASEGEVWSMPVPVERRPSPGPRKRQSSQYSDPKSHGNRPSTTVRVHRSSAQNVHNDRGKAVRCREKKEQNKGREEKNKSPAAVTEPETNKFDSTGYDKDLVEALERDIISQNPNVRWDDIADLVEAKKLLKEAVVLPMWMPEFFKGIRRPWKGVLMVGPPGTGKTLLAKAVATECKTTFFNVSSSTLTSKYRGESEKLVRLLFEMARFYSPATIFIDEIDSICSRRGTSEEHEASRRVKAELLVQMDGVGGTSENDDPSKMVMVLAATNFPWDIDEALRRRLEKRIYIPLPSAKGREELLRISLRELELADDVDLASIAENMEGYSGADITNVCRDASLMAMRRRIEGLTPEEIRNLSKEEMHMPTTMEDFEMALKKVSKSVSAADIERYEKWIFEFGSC
UniProt Q96HW7, whole entry, looked up: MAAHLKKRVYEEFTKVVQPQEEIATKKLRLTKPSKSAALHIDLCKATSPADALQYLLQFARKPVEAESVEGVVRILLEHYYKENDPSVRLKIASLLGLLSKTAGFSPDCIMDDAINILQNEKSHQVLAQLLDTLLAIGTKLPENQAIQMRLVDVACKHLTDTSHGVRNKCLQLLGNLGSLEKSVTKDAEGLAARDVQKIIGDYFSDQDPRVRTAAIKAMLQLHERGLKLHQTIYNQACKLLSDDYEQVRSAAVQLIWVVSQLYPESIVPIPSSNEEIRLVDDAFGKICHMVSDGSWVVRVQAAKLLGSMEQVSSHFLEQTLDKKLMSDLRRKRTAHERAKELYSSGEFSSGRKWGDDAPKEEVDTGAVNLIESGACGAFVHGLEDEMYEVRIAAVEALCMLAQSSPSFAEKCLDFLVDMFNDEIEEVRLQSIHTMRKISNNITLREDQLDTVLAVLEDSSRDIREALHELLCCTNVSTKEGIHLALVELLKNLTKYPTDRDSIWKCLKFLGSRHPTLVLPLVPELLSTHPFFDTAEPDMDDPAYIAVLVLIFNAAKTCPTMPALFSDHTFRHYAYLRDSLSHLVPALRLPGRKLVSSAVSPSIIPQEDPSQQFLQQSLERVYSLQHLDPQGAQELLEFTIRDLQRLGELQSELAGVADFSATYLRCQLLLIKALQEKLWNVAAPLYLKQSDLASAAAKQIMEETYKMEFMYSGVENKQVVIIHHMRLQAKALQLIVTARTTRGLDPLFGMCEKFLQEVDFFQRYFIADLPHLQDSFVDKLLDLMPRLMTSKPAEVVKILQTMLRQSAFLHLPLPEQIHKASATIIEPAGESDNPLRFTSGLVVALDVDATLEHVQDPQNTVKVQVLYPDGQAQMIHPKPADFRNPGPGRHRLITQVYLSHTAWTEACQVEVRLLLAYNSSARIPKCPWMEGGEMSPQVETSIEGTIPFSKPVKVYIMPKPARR
UniProt Q9BUE6: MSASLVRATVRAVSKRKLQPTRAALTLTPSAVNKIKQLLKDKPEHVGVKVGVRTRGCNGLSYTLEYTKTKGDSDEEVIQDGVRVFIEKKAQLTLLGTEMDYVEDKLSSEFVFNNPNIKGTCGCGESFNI
UniProt Q9H3F6: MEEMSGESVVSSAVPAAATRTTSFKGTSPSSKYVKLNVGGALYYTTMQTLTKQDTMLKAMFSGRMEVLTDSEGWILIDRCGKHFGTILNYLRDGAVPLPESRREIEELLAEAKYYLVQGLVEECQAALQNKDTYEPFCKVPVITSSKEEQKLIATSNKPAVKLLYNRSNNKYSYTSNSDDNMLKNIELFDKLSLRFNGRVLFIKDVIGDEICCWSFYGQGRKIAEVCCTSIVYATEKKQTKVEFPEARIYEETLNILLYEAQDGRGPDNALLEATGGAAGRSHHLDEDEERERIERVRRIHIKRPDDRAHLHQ
UniProt Q9H0H0, whole entry, looked up: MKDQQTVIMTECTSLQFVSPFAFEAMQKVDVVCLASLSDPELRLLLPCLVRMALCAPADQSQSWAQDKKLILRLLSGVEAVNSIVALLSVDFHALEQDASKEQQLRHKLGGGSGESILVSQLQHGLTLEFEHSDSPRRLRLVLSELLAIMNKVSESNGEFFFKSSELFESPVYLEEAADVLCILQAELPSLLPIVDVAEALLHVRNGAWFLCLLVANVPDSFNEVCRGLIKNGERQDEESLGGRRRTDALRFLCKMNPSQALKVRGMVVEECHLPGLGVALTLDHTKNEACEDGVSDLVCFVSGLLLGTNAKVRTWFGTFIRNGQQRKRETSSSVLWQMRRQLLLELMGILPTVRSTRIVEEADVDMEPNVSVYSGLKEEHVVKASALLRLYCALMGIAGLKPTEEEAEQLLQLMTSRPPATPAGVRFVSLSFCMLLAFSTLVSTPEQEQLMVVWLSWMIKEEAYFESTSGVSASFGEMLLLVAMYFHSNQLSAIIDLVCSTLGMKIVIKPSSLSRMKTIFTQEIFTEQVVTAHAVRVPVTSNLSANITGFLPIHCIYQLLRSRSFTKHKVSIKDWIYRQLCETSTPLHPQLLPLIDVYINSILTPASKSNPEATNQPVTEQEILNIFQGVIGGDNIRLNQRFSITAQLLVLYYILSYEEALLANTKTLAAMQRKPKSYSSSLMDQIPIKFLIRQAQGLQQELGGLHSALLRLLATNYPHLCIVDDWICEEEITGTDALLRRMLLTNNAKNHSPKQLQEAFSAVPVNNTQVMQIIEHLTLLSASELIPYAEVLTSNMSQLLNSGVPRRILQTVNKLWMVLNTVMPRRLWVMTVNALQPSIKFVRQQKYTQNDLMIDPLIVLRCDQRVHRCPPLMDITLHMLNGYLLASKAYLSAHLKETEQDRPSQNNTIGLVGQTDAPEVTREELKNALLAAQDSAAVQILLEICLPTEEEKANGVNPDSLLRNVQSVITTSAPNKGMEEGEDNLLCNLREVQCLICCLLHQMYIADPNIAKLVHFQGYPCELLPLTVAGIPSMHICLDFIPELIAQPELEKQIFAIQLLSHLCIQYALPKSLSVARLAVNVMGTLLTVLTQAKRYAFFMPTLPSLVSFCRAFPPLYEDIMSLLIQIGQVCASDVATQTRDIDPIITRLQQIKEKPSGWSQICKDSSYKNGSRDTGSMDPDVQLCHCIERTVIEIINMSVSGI
UniProt O95251, whole entry, looked up: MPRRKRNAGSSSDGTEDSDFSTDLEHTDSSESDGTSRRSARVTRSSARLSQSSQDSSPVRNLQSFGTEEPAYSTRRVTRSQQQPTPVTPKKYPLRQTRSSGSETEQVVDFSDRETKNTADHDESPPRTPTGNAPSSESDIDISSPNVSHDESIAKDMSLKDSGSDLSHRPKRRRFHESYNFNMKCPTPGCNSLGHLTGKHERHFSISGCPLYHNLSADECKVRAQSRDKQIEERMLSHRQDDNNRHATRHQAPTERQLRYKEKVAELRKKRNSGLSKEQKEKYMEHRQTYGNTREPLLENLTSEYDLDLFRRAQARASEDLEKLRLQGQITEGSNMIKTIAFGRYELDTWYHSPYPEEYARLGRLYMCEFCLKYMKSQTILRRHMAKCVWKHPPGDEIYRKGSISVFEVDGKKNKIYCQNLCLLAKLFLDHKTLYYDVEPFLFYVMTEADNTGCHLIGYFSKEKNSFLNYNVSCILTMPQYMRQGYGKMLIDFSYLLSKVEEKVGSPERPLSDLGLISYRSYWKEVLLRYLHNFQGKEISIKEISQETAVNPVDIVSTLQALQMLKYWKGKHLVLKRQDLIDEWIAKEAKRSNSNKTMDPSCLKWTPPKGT
UniProt Q96CN7: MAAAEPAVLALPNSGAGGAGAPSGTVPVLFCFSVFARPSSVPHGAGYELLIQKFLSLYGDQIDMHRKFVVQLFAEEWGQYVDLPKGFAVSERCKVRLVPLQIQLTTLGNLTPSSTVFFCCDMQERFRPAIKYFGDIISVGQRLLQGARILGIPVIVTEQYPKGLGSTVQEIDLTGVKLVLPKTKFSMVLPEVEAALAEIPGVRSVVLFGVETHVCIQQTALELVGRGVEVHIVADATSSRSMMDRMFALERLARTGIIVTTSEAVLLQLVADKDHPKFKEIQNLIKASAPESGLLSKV

Legend:
Test in all cases: log2 fold change, soluble protein after heating vs DMSO (PISA); higher = thermal stabilisation; K562 lysate, 10 uM; active = over 0.2 and 3.5 SD of the protein, either way, in both replicates (recomputed)
[1] = compound: C=CC(=O)N1CCC[C@@H](n2nc(-c3ccc(Oc4ccccc4)cc3)c3c(N)ncnc32)C1 [ibrutinib]
How it was run: (§1)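 Quantification was by TMTpro 16plex LC-MS/MS with equalised channel sums, applied to the supernatant after 21,000xg for 90 min. Samples were crude K562 extract at 1 mg/mL protein in PBS pH 7.4 with 1 mM MgCl2, treated with 10 μM compound for 30 min, heated for 3 min across 48°C-58°C, pooled and brought to 0.5% NP-40 at 4°C. Values are log-two fold changes in thermal stability relative to solvent controls, from duplicates.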

[2] = compound: CC(=O)c1cnc2ccc(-c3cc(Cl)c(O)c(Cl)c3)nc2c1N[C@H]1CC[C@H](CN(C)C)CC1
How it was run: as §1

[3] = compound: CC(C)(C)Cn1c(N)nc2ccc(-c3[nH]c(C(C)(C)C)nc3-c3ccc(F)cc3)nc21 [ralimetinib]
How it was run: as §1

[4] = compound: CC(C)(O)CC(=O)NCCn1ccc2ncnc(Nc3ccc(Oc4cccc(C(F)(F)F)c4)c(Cl)c3)c21
How it was run: as §1

[5] = compound: CC(C)C1=C2N=C(C=C(N2N=C1)NCC3=CC=CC=C3)NCCCCCCN
How it was run: as §1

[6] = compound: CC1=C(C(CC(=O)N1)C2=CC=C(C=C2)C(F)(F)F)C(=O)NC3=C(C=C4C(=C3)C=NN4)F
How it was run: as §1

[7] = compound: CC1=C(C2=C(C=C1)C(=O)C3=CC=CC=C3N2CCCN)C
How it was run: as §1

[8] = compound: CC1=C(C=C(C=C1)NC(=O)C2=CC(=CC=C2)C(C)(C)C#N)NC3=CC4=C(C=C3)N=CN(C4=O)C
How it was run: as §1

[9] = compound: CC1=C(C=C(C=C1)NC(=O)C2=CC(=CC=C2)N(C)C)NC(=O)C3=CC=C(C=C3)O
How it was run: as §1

[10] = compound: CC1=CC=C(C=C1)SC2=C3C=C(SC3=CN=C2)C(=O)N
How it was run: as §1

Measured: log2 fold change

ITSN2 (UniProt Q9NZM3)
inactive: [1] 0.002 | [2] -0.017 | [3] 0.057 | [4] -0.004 | [5] 0.023 | [6] -0.028 | [7] 0.047 | [8] 0.039 | [9] -0.01 | [10] -0.028

KDM1A (UniProt O60341)
inactive: [1] 0.007 | [2] -0.011 | [3] 0.018 | [4] -0.016 | [5] 0.019 | [6] -0.004 | [7] 0.003 | [8] -0.004 | [9] 0.044 | [10] 0.003

IRAK4 (UniProt Q9NWZ3)
inactive: [1] 0 | [2] 0.195 | [3] 0 | [4] -0.018 | [5] -0.01 | [6] -0.018 | [7] -0.011 | [8] -0.018 | [9] 0.008 | [10] -0.041

ITGB1 (UniProt P05556)
inactive: [1] 0.013 | [2] 0.013 | [3] -0.003 | [4] -0.012 | [5] -0.014 | [6] 0.007 | [7] 0.01 | [8] 0.003 | [9] 0.008 | [10] -0.011

INTS5 (UniProt Q6P9B9)
inactive: [1] 0.051 | [2] 0.056 | [3] 0.051 | [4] -0.038 | [5] -0.06 | [6] -0.013 | [7] 0.021 | [8] 0 | [9] 0.039 | [10] 0.003

IPO13 (UniProt O94829)
inactive: [1] 0.028 | [2] -0.007 | [3] 0.02 | [4] -0.044 | [5] -0.025 | [6] -0.041 | [7] 0.07 | [8] -0.005 | [9] 0.011 | [10] -0.005

IQGAP3 (UniProt Q86VI3)
inactive: [1] 0.028 | [2] 0.054 | [3] 0.021 | [4] -0.06 | [5] -0.027 | [6] 0.017 | [7] -0.153 | [8] -0.017 | [9] 0.082 | [10] -0.051

ISG15 (UniProt P05161)
inactive: [1] -0.017 | [2] -0.035 | [3] 0.006 | [4] -0.08 | [5] -0.055 | [6] -0.027 | [7] -0.064 | [8] 0.009 | [9] 0.015 | [10] -0.034

IPO7 (UniProt O95373)
inactive: [1] -0.009 | [2] -0.003 | [3] 0.007 | [4] -0.041 | [5] -0.017 | [6] -0.017 | [7] -0.008 | [8] 0.016 | [9] -0.022 | [10] 0.007

IP6K1 (UniProt Q92551)
inactive: [1] -0.334 | [2] -0.018 | [3] -0.053 | [4] 0.017 | [5] -0.002 | [6] 0.13 | [7] 0.026 | [8] 0.014 | [9] 0.04

ITFG2 (UniProt Q969R8)
inactive: [1] 0.011 | [2] 0.008 | [3] 0.067 | [4] 0 | [5] -0.042 | [6] 0.015 | [7] -0.031 | [8] -0.032 | [9] -0.028 | [10] 0.009

KCNAB2 (UniProt Q13303)
inactive: [1] 0.001 | [2] 0.027 | [3] 0.029 | [4] -0.018 | [5] 0.042 | [6] -0.017 | [7] -0.02 | [8] 0.002 | [9] 0.004 | [10] 0.036

IPO11 isoform 2 (UniProt Q9UI26)
inactive: [1] -0.03 | [2] -0.023 | [3] -0.002 | [4] -0.026 | [5] -0.008 | [6] 0.024 | [7] 0.005 | [8] 0.038 | [9] 0.01 | [10] -0.016

KATNA1 (UniProt O75449)
inactive: [1] -0.016 | [2] 0.024 | [3] 0.015 | [4] -0.047 | [5] -0.035 | [6] 0.017 | [7] -0.011 | [8] -0.004 | [9] -0.016 | [10] 0.037

KBTBD4 isoform 2 (UniProt Q9NVX7)
inactive: [1] 0.051 | [2] -0.026 | [3] -0.069 | [4] 0.009 | [5] -0.039 | [6] -0.156 | [7] -0.045 | [8] 0.142 | [9] -0.014 | [10] 0.031

INTS4 (UniProt Q96HW7)
inactive: [1] 0.051 | [2] 0.001 | [3] 0.028 | [4] -0.036 | [5] -0.066 | [6] -0.021 | [7] -0.033 | [8] 0.021 | [9] 0.006 | [10] -0.009

ITPA (UniProt Q9BY32)
inactive: [1] -0.028 | [2] 0.01 | [3] -0.021 | [4] -0.026 | [5] -0.013 | [6] -0.045 | [7] -0.021 | [8] 0.036 | [9] -0.017 | [10] -0.003

JUND (UniProt P17535)
inactive: [1] 0.024 | [2] -0.034 | [3] 0.039 | [4] -0.002 | [5] -0.032 | [6] 0.02 | [7] 0.025 | [8] 0.063 | [9] -0.009 | [10] -0.019

Quoted from the entries so far (two entries):
KDM1A (UniProt O60341)
inactive: [1] 0.007 | [2] -0.011 | [3] 0.018 | [4] -0.016 | [5] 0.019 | [6] -0.004 | [7] 0.003 | [8] -0.004 | [9] 0.044 | [10] 0.003

IRAK4 (UniProt Q9NWZ3)
inactive: [1] 0 | [2] 0.195 | [3] 0 | [4] -0.018 | [5] -0.01 | [6] -0.018 | [7] -0.011 | [8] -0.018 | [9] 0.008 | [10] -0.041

(next part)

IQSEC2 (UniProt Q5JU85)
inactive: [1] 0.016 | [2] -0.102 | [3] 0.088 | [4] 0.051 | [5] -0.027 | [6] -0.031 | [7] -0.258 | [8] 0.049 | [9] -0.027 | [10] -0.059

JPT2 isoform 3 (UniProt Q9H910)
inactive: [1] 0.025 | [2] -0.009 | [3] -0.008 | [4] -0.041 | [5] -0.002 | [6] -0.019 | [7] -0.004 | [8] 0.001 | [9] 0.017 | [10] -0.027

ISCA1 isoform 2 (UniProt Q9BUE6)
inactive: [1] 0.049 | [2] -0.001 | [3] 0.04 | [4] -0.028 | [5] -0.069 | [6] -0.276 | [7] -0.006 | [8] 0.031 | [9] -0.029 | [10] -0.016

IQGAP2 (UniProt Q13576)
inactive: [1] 0.002 | [2] 0.002 | [3] 0.027 | [4] -0.022 | [5] -0.004 | [6] 0.004 | [7] -0.012 | [8] 0.01 | [9] 0.031 | [10] -0.001

KCTD3 (UniProt Q9Y597)
inactive: [1] 0.049 | [2] 0.013 | [3] -0.034 | [4] -0.021 | [5] -0.016 | [6] -0.03 | [7] -0.01 | [8] 0.024 | [9] 0.01 | [10] -0.002

KCTD10 (UniProt Q9H3F6)
inactive: [1] 0.013 | [2] 0.023 | [3] -0.02 | [4] -0.042 | [5] -0.077 | [6] -0.06 | [7] -0.096 | [8] -0.06 | [9] 0.011 | [10] 0.03

IVNS1ABP (UniProt Q9Y6Y0)
inactive: [1] -0.069 | [2] -0.002 | [3] 0.02 | [4] -0.062 | [5] 0.017 | [6] 0.104 | [7] -0.008 | [8] -0.033 | [9] 0.026 | [10] 0.001

INTS2 (UniProt Q9H0H0)
inactive: [1] -0.031 | [2] -0.097 | [3] -0.008 | [4] -0.077 | [5] 0.064 | [6] 0.01 | [7] -0.019 | [8] -0.064 | [9] 0.028 | [10] 0.083

KAT7 (UniProt O95251)
inactive: [1] 0.018 | [2] 0.04 | [3] -0.127 | [4] -0.021 | [5] 0.009 | [6] 0.103 | [7] 0.077 | [8] 0.083 | [9] -0.039 | [10] -0.037

JMJD1C (UniProt Q15652)
inactive: [1] -0.095 | [2] -0.017 | [3] -0.008 | [4] -0.03 | [5] -0.002 | [6] 0.009 | [7] 0.015 | [8] -0.034 | [9] 0.041 | [10] 0.02

ISOC1 (UniProt Q96CN7)
inactive: [1] 0.045 | [2] 0.01 | [3] -0.023 | [4] 0.042 | [5] 0.013 | [6] -0.023 | [7] -0.009 | [8] 0 | [9] -0.018 | [10] -0.013

INTS7 (UniProt Q9NVH2)
active: [8] 0.543
inactive: [1] 0.012 | [2] 0.061 | [3] 0.083 | [4] -0.024 | [5] 0.023 | [6] 0.023 | [7] -0.09 | [9] 0.007 | [10] 0.039
